{"source": "PubChem BioAssay AID504774, Drosophila RNAi Screening Center – 2011", "assay": "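Knock-downs that shift viability of MMS-exposed cells relative to untreated ones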 (primary screen)", "cells": "Drosophila Kc167 cells", "reagents": "long dsRNA against Drosophila genes, about 0.25 µg dsRNA per well", "timing": "about 6 days: 3 days knock-down, then 3 days with or without MMS", "treatment": "methyl methanesulphonate 0.004% (w/v) for 3 days after knock-down", "detection": "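ATP-dependent luminescence as a measure of live cells in MMS-exposed wells, quantile normalised within each plate, with replicate values also given as a mean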", "reading the numbers": "mean viability with MMS: higher = more surviving cells after MMS", "note": "The deposit covers about 23,000 reagents; shown is a random part of those that have a named target and a result. 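Values are quantile-normalised luminescence on an arbitrary scale; higher means more cells surviving MMS.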 Reagents against one gene are numbered here. Names joined by + are all predicted targets of the reagent. Not all columns of the deposit are shown."}
{"Gene": "CG6656", "reagent no.": 1, "mean viability with MMS": 3.46e6}
{"Gene": "Nop17l", "reagent no.": 1, "mean viability with MMS": 3.72e6}
{"Gene": "boly", "reagent no.": 1, "mean viability with MMS": 3.68e6}
{"Gene": "yellow-f2", "reagent no.": 1, "mean viability with MMS": 3.57e6}
{"Gene": "Usp32", "reagent no.": 1, "mean viability with MMS": 3.43e6}
{"Gene": "Hsp70Bb + Hsp70Bbb", "reagent no.": 1, "mean viability with MMS": 3.64e6}
{"Gene": "mRpL33", "reagent no.": 1, "mean viability with MMS": 3.66e6}
{"Gene": "CG13813", "reagent no.": 1, "mean viability with MMS": 3.43e6}
{"Gene": "PK2-R2", "reagent no.": 1, "mean viability with MMS": 3.75e6}
{"Gene": "CG13717 (retired record)", "reagent no.": 1, "mean viability with MMS": 1.87e6}
{"Gene": "CG13717 (retired record)", "reagent no.": 2, "mean viability with MMS": 3.62e6}
{"Gene": "CG13717 (retired record)", "reagent no.": 3, "mean viability with MMS": 3.24e6}
{"Gene": "CG13717 (retired record)", "reagent no.": 4, "mean viability with MMS": 3.70e6}
{"Gene": "CG13717 (retired record)", "reagent no.": 5, "mean viability with MMS": 3.33e6}
{"Gene": "disco-r", "reagent no.": 1, "mean viability with MMS": 3.70e6}
{"Gene": "disco-r", "reagent no.": 2, "mean viability with MMS": 3.56e6}
{"Gene": "Dnaaf5", "reagent no.": 1, "mean viability with MMS": 3.37e6}
{"Gene": "CG8379", "reagent no.": 1, "mean viability with MMS": 3.33e6}
{"Gene": "Mulk", "reagent no.": 1, "mean viability with MMS": 3.51e6}
{"Gene": "CG9801", "reagent no.": 1, "mean viability with MMS": 3.59e6}
{"Gene": "Obsc", "reagent no.": 1, "mean viability with MMS": 1.92e6}
{"Gene": "Obsc", "reagent no.": 2, "mean viability with MMS": 3.44e6}
{"Gene": "Obsc", "reagent no.": 3, "mean viability with MMS": 3.45e6}
{"Gene": "Obsc", "reagent no.": 4, "mean viability with MMS": 3.31e6}
{"Gene": "Obsc", "reagent no.": 5, "mean viability with MMS": 3.75e6}

3 consecutive entries already listed, quoted:
{"Gene": "CG13717 (retired record)", "reagent no.": 2, "mean viability with MMS": 3.62e6}
{"Gene": "CG13717 (retired record)", "reagent no.": 3, "mean viability with MMS": 3.24e6}
{"Gene": "CG13717 (retired record)", "reagent no.": 4, "mean viability with MMS": 3.70e6}
